These results are taken from patent publication US10940110B2, “Method and system for the treatment of chronic COPD with nebulized anticholinergic administrations” (Sunovion Respiratory Development Inc., priority 2008, dated 2021).

The conditions of data set [1]: plasma, 200 μg; for Cmax: COPD patients.
The next data set is described as follows: clinical. Conditions: human, plasma, inhaled, 200 ug.

Read-outs that look alike come from different tables or passages of the source.

As usually defined, the Cmax is the peak of the concentration-time curve. What is called AUC(0-inf) is total exposure, with the tail of the curve extrapolated. A word on the AUC(0-t): it is exposure summed from dosing to a finite time, without extrapolation to infinity. As usually defined, the Tmax is the time from dosing to the highest level. Take `C[N+]1(C)CCC(OC(=O)C(O)(c2ccccc2)C2CCCC2)C1` (stereo not drawn) [glycopyrrolate, 3-[(cyclopentylhydroxyphenylacetyl)oxy]-1,1-dimethylpyrrolidinium]: the Cmax in data set [1] (Conventional (jet) Nebulizer) amounted to 76 pg/mL; in data set [1] (High Efficiency Nebulizer (eFlow)), 177 pg/mL. The “AUC(0-inf)” value is 70 pg·h/mL in data set [1] (Conventional Nebulizer) and 615 pg·h/mL in data set [1] (High Efficiency Nebulizer). In addition, the “AUC(0-t)” value in data set [1] (Conventional Nebulizer) was 26 pg·h/mL; in data set [1] (High Efficiency Nebulizer), 429 pg·h/mL. Besides, the “Cmax/AUC(0-t)” value in data set [1] (Conventional Nebulizer) was 2.92 h⁻¹; in data set [1] (High Efficiency Nebulizer), 0.41 h⁻¹. The time to peak (Tmax) result is “about 8 min” in data set [1] (Conventional Nebulizer); 8.2 min in data set [1] (Conventional Nebulizer, listed as Glycopyrrolate); 11.6 min in data set [1] (High Efficiency Nebulizer); ~12 min in “clinical”.
